Measurements from article PMC6791687.

Chains of the proteins cited; added tags and fusions are not shown.
UniProt Q8W234: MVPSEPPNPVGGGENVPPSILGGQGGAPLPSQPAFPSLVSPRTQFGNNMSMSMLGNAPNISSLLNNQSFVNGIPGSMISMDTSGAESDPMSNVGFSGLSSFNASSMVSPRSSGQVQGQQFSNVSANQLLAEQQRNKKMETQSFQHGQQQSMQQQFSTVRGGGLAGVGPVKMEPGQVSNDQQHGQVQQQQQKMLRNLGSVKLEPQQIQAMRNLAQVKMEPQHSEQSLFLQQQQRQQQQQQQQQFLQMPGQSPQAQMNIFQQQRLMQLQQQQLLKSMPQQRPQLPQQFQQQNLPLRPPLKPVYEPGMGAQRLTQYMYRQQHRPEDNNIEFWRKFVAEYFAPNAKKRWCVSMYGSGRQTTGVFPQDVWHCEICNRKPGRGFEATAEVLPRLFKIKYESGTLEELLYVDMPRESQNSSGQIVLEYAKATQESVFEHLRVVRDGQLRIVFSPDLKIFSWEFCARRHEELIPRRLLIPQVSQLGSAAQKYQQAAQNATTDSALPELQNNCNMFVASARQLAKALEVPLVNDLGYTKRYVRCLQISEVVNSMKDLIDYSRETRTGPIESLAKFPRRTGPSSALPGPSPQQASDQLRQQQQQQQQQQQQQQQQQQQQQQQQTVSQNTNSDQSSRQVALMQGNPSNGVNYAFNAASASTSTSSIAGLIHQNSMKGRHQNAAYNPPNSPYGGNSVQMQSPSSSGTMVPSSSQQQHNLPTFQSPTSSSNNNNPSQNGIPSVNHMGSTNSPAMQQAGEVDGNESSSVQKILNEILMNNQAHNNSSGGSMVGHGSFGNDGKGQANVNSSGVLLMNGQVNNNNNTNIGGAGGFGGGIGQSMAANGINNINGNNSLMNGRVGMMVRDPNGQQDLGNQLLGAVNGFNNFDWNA

T1: FAMA-TbID-Venus (UBQ10pro::cFAMA-TbID-mVenus) (Arabidopsis thaliana) (UniProt Q56YJ8)
T1 sequence: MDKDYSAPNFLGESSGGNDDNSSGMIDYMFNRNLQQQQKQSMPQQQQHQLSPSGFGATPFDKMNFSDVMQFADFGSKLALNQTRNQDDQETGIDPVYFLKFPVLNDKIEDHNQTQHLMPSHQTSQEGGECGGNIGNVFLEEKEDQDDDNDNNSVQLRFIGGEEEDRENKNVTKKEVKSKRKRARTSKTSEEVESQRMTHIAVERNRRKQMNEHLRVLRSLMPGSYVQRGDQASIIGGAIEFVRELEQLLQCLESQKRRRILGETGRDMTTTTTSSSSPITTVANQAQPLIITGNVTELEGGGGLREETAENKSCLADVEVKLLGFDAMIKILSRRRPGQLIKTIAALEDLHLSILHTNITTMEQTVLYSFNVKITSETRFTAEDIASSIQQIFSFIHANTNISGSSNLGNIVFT

T2: FAMA-TbID-Venus (FAMApro::FAMA-TbID-mVenus in fama-1) (Arabidopsis thaliana) (UniProt Q56YJ8)
T2 sequence: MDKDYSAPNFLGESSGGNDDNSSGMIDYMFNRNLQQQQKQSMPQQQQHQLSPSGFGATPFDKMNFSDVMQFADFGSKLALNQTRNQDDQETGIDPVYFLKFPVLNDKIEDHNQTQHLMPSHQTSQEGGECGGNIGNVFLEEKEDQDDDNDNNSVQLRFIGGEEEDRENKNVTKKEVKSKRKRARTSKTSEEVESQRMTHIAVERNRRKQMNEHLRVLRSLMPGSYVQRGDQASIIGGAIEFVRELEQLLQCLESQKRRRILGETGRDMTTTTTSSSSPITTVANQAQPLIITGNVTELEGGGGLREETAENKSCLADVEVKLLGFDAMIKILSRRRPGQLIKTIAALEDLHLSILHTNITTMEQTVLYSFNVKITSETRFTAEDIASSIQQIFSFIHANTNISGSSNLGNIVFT

T3: FAMA-CFP (FAMApro::FAMA-CFP in fama-1) (Arabidopsis thaliana) (UniProt Q56YJ8)
T3 sequence: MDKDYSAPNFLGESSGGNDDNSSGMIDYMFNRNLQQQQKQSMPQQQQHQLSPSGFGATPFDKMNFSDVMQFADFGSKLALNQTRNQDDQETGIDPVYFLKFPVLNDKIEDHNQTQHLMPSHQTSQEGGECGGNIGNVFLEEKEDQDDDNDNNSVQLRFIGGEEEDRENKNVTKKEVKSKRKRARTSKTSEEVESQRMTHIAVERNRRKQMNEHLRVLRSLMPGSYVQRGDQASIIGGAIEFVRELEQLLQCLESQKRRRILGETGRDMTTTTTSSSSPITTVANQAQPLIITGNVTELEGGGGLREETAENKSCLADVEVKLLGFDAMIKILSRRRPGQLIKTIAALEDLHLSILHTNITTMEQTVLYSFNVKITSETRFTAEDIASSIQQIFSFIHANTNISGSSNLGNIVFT


Columns and labels:
[1] = target: T1, FAMA-TbID-Venus (UBQ10pro::cFAMA-TbID-mVenus) (Arabidopsis thaliana); assay: proximity labelling; pairwise: FAMA-TbID-Venus or TbID-YFPNLS co-expressed with HA- or myc-tagged candidates in N. benthamiana leaves (UBQ10 promoter), no exogenous biotin; streptavidin bead pulldown of biotinylated proteins, immunoblot for the tag
[2] = target: T2, FAMA-TbID-Venus (FAMApro::FAMA-TbID-mVenus in fama-1) (Arabidopsis thaliana); assay: proximity labelling; FAMApro::FAMA-TbID-Venus in 5-day-old Arabidopsis seedlings, 50 uM biotin for 0, 0.5 or 3 h; biotinylated proteins purified on streptavidin beads, on-bead digest, LC-MS/MS with label-free quantification; filtered for enrichment against WT, nuclear TbID (FAMAnucTbID) and untreated samples; three biological replicates
[3] = target: T3, FAMA-CFP (FAMApro::FAMA-CFP in fama-1) (Arabidopsis thaliana); assay: affinity purification with mass spectrometry; FAMA-CFP from 15 g of 4-day-old Arabidopsis seedlings treated with MG-132 and cross-linked with formaldehyde (0.25% or 0.125%), GFP-Trap beads, LC-MS/MS; controls: nuclear GFP lines (SPCHpro::GFPNLS, MUTEpro::GFPNLS)

binding [1]	binding [2]	binding [3]	Molecule
binds			SEU-4xmyc (from UniProt Q8W234 1-877)
	binds	binds	INDUCER OF CBF EXPRESSION 1 (protein, UniProt Q9LSE2 1-494) MGLDGNNGGGVWLNGGGGEREENEEGSWGRNQEDGSSQFKPMLEGDWFSSNQPHPQDLQMLQNQPDFRYFGGFPFNPNDNLLLQHSIDSSSSCSPSQAFSLDPSQQNQFLSTNNNKGCLLNVPSSANPFDNAFEFGSESGFLNQIHAPISMGFGSLTQLGNRDLSSVPDFLSARSLLAPESNNNNTMLCGGFTAPLELEGFGSPANGGFVGNRAKVLKPLEVLASSGAQPTLFQKRAAMRQSSGSKMGNSESSGMRRFSDDGDMDETGIEVSGLNYESDEINESGKAAESVQIGGGGKGKKKGMPAKNLMAERRRRKKLNDRLYMLRSVVPKISKMDRASILGDAIDYLKELLQRINDLHNELESTPPGSLPPTSSSFHPLTPTPQTLSCRVKEELCPSSLPSPKGQQARVEVRLREGRAVNIHMFCGRRPGLLLATMKALDNLGLDVQQAVISCFNGFALDVFRAEQCQEGQEILPDQIKAVLFDTAGYAGMI

Results are given in words; binding and its absence hold for the method and conditions named. In cells and extracts the contact can be indirect. These calls come from enrichment with a bait or labelling near it, and not all partners need be listed. For part of these data: Sequences can lack the tags named with a protein.
